{
  "source": "PubChem BioAssay AID256",
  "about": "(DTP/NCI, 2004)",
  "system": "CD2F1 mice, L1210 leukemia ip, survival T/C",
  "assay": "NCI In Vivo Anticancer Drug Screen. Data for tumor model L1210 Leukemia (intraperitoneal) in CD2F1 (CDF1) mice",
  "conditions": "higher T/C = longer survival",
  "method_in_brief": "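Mice carrying a transplanted tumor received test compound or vehicle alone. The value is the measurement in the treated group divided by that in the vehicle-treated control group.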",
  "key": {"[1]": {"conditions": "T/C endpoint: median survival time, dose: 6.0 mg/kg/injection, schedule: Q01DX009 (ip), vehicle: saline"}},
  "note": "The list shows only some results of the screen, not a fair sample: it is rich in T/C values a quarter to a half above the control, in often repeated tests (any T/C) and in doses without a T/C. Further doses and runs are listed elsewhere. T/C: endpoint of the treated group in % of that of the vehicle group. Some doses have a count of surviving animals in place of a T/C: the source holds a T/C of zero for them, seemingly a mark for toxic or unscored doses. Some doses without a T/C left all or most animals alive at the check, yet need not have been tolerated: survival well below the control is almost never listed, so the zero probably covers shortened survival too. Survivors were counted at the toxicity check, usually on the fifth day, unless a day is given; later deaths do not show. Schedules are NCI's codes, read here as Q, the interval in days (D) or hours (H), X, the number of doses. Signs of the kind (2×) count equal records among those shown. Where survival is the endpoint, this PubChem deposit counts one and a half times the control or more as active, and values a quarter to a half above the control carry no call in these data; other NCI protocols may use other cut-offs. Some entries hold several experiments; the results are listed from low to high. Some T/C values carry the count of animals alive at the toxicity check (mostly the fifth day); where none is given, no animal had died by that day.",
  "data": [
    {"smiles": "Nc1ncn(C2OC(CO)C(O)C2O)c(=O)n1", "note": "(stereo unspecified)", "values": [
      {"measurement": "T/C", "setting": "T/C endpoint: mean survival time, dose: 100.0 mg/kg/injection, schedule: Q04DX003 (ip), vehicle: saline, evaluated on day 30", "value": "164, 175, 182 % of control"},
      {"measurement": "T/C", "setting": "T/C endpoint: mean survival time, dose: 100.0 mg/kg/injection, schedule: Q04DX003 (ip), vehicle: saline, evaluated on day 50", "value": "166 % of control"},
      {"measurement": "T/C", "setting": "T/C endpoint: mean survival time, dose: 200.0 mg/kg/injection, schedule: Q01DX009 (ip), vehicle: saline, evaluated on day 30", "value": "119, 188, 243 % of control"},
      {"measurement": "T/C", "setting": "T/C endpoint: mean survival time, dose: 200.0 mg/kg/injection, schedule: Q01DX009 (ip), vehicle: saline, evaluated on day 50", "value": "174 % of control"},
      {"measurement": "T/C", "setting": "T/C endpoint: median survival time, dose: 0.37 mg/kg/injection, schedule: Q01DX009 (ip), vehicle: saline", "value": "135 % of control"},
      {"measurement": "T/C", "setting": "T/C endpoint: median survival time, dose: 0.63 mg/kg/injection, schedule: Q01DX009 (ip), vehicle: saline", "value": "147 % of control"},
      {"measurement": "T/C", "setting": "T/C endpoint: median survival time, dose: 1.56 mg/kg/injection, schedule: Q01DX009 (ip), vehicle: other", "value": "148 % of control"},
      {"measurement": "T/C", "setting": "T/C endpoint: median survival time, dose: 1.56 mg/kg/injection, schedule: Q01DX009 (ip), vehicle: saline", "value": "142 % of control"},
      {"measurement": "T/C", "setting": "T/C endpoint: median survival time, dose: 2.0 mg/kg/injection, schedule: Q01DX009 (oral), vehicle: saline", "value": "125 % of control"},
      {"measurement": "T/C", "setting": "T/C endpoint: median survival time, dose: 3.75 mg/kg/injection, schedule: Q04DX003 (ip), vehicle: saline", "value": "134 % of control"},
      {"measurement": "T/C", "setting": "T/C endpoint: median survival time, dose: 4.0 mg/kg/injection, schedule: Q01DX009 (oral), vehicle: saline", "value": "143 % of control"},
      {"measurement": "T/C", "setting": "T/C endpoint: median survival time, dose: 4.0 mg/kg/injection, schedule: Q04DX003 (ip), vehicle: saline", "value": "131 % of control"},
      {"measurement": "survivor count", "setting": "T/C endpoint: median survival time, dose: 6.0 mg/kg/injection, schedule: Q01DX009 (ip), vehicle: clinical formulation", "value": "10 of 10"},
      {"measurement": "T/C", "setting": "[1]", "value": "134 % of control"},
      {"measurement": "survivor count", "setting": "[1]", "value": "10 of 10"},
      {"measurement": "T/C", "setting": "T/C endpoint: median survival time, dose: 8.0 mg/kg/injection, schedule: Q01DX009 (ip), vehicle: saline", "value": "137 % of control"},
      {"measurement": "survivor count", "setting": "T/C endpoint: median survival time, dose: 12.0 mg/kg/injection, schedule: Q01DX009 (ip), vehicle: clinical formulation", "value": "10 of 10"},
      {"measurement": "survivor count", "setting": "T/C endpoint: median survival time, dose: 12.0 mg/kg/injection, schedule: Q01DX009 (ip), vehicle: saline", "value": "10 of 10 (2×)"},
      {"measurement": "T/C", "setting": "T/C endpoint: median survival time, dose: 12.5 mg/kg/injection, schedule: Q01DX009 (ip), vehicle: saline, evaluated on day 30", "value": "213 and 233 % of control"},
      {"measurement": "T/C", "setting": "T/C endpoint: median survival time, dose: 12.5 mg/kg/injection, schedule: Q01DX009 (ip), vehicle: saline, evaluated on day 60", "value": "215 and 220 % of control"},
      {"measurement": "survivor count", "setting": "T/C endpoint: median survival time, dose: 16.0 mg/kg/injection, schedule: Q01DX009 (ip), vehicle: saline", "value": "5 of 6"},
      {"measurement": "T/C", "setting": "T/C endpoint: median survival time, dose: 18.7 mg/kg/injection, schedule: Q04DX003 (ip), vehicle: DMSO", "value": "145 % of control"},
      {"measurement": "survivor count", "setting": "T/C endpoint: median survival time, dose: 24.0 mg/kg/injection, schedule: Q01DX009 (ip), vehicle: clinical formulation", "value": "1 of 10"},
      {"measurement": "survivor count", "setting": "T/C endpoint: median survival time, dose: 24.0 mg/kg/injection, schedule: Q01DX009 (ip), vehicle: saline", "value": "1 of 10"},
      {"measurement": "T/C", "setting": "T/C endpoint: median survival time, dose: 25.0 mg/kg/injection, schedule: Q01DX009 (ip), vehicle: saline, evaluated on day 30", "value": "247 and 263 % of control"},
      {"measurement": "T/C", "setting": "T/C endpoint: median survival time, dose: 25.0 mg/kg/injection, schedule: Q01DX009 (ip), vehicle: saline, evaluated on day 60", "value": "255 and 274 % of control"},
      {"measurement": "survivor count", "setting": "T/C endpoint: median survival time, dose: 32.0 mg/kg/injection, schedule: Q01DX005 (ip), vehicle: saline", "value": "0 of 6"},
      {"measurement": "survivor count", "setting": "T/C endpoint: median survival time, dose: 32.0 mg/kg/injection, schedule: Q01DX009 (ip), vehicle: saline", "value": "3 of 6"},
      {"measurement": "T/C", "setting": "T/C endpoint: median survival time, dose: 32.0 mg/kg/injection, schedule: Q04DX003 (ip), vehicle: saline", "value": "140 % of control"},
      {"measurement": "T/C", "setting": "T/C endpoint: median survival time, dose: 37.5 mg/kg/injection, schedule: Q03HX024 (ip), vehicle: DMSO", "value": "134 % of control"},
      {"measurement": "T/C", "setting": "T/C endpoint: median survival time, dose: 50.0 mg/kg/injection, schedule: Q01DX009 (ip), vehicle: saline, evaluated on day 30", "value": "270 and 278 % of control"},
      {"measurement": "T/C", "setting": "T/C endpoint: median survival time, dose: 50.0 mg/kg/injection, schedule: Q01DX009 (ip), vehicle: saline, evaluated on day 60", "value": "268 and 304 % of control"},
      {"measurement": "T/C", "setting": "T/C endpoint: median survival time, dose: 56.2 mg/kg/injection, schedule: Q01DX001 (iv), vehicle: DMSO", "value": "136 % of control"},
      {"measurement": "survivor count", "setting": "T/C endpoint: median survival time, dose: 64.0 mg/kg/injection, schedule: Q01DX005 (ip), vehicle: saline", "value": "0 of 6"},
      {"measurement": "T/C", "setting": "T/C endpoint: median survival time, dose: 100.0 mg/kg/injection, schedule: Q01DX009 (ip), vehicle: DMSO", "value": "148 % of control"},
      {"measurement": "T/C", "setting": "T/C endpoint: median survival time, dose: 100.0 mg/kg/injection, schedule: Q01DX009 (ip), vehicle: saline, evaluated on day 30", "value": "282 and 303 % of control"},
      {"measurement": "T/C", "setting": "T/C endpoint: median survival time, dose: 100.0 mg/kg/injection, schedule: Q01DX009 (ip), vehicle: saline, evaluated on day 45", "value": "314 and 337 % of control"},
      {"measurement": "T/C", "setting": "T/C endpoint: median survival time, dose: 100.0 mg/kg/injection, schedule: Q01DX009 (ip), vehicle: saline, evaluated on day 60", "value": "154 and 220 % of control"},
      {"measurement": "T/C", "setting": "T/C endpoint: median survival time, dose: 112.0 mg/kg/injection, schedule: Q01DX001 (ip), vehicle: DMSO", "value": "125 % of control"},
      {"measurement": "T/C", "setting": "T/C endpoint: median survival time, dose: 112.5 mg/kg/injection, schedule: Q01DX001 (iv), vehicle: DMSO", "value": "137 % of control"},
      {"measurement": "survivor count", "setting": "T/C endpoint: median survival time, dose: 128.0 mg/kg/injection, schedule: Q01DX005 (ip), vehicle: saline", "value": "0 of 6"},
      {"measurement": "T/C", "setting": "T/C endpoint: median survival time, dose: 150.0 mg/kg/injection, schedule: Q01DX009 (ip), vehicle: saline", "value": "139 % of control"},
      {"measurement": "T/C", "setting": "T/C endpoint: median survival time, dose: 200.0 mg/kg/injection, schedule: Q01DX009 (ip), vehicle: DMSO", "value": "132 % of control"},
      {"measurement": "T/C", "setting": "T/C endpoint: median survival time, dose: 200.0 mg/kg/injection, schedule: Q01DX009 (ip), vehicle: saline, evaluated on day 30", "value": "301 and 375 % of control"},
      {"measurement": "T/C", "setting": "T/C endpoint: median survival time, dose: 200.0 mg/kg/injection, schedule: Q01DX009 (ip), vehicle: saline, evaluated on day 60", "value": "129 [9 of 10 alive] and 154 % of control"},
      {"measurement": "T/C", "setting": "T/C endpoint: median survival time, dose: 200.0 mg/kg/injection, schedule: Q01DX009 (oral), vehicle: DMSO", "value": "147 % of control"},
      {"measurement": "T/C", "setting": "T/C endpoint: median survival time, dose: 225.0 mg/kg/injection, schedule: Q01DX001 (ip), vehicle: DMSO", "value": "130 % of control"},
      {"measurement": "survivor count", "setting": "T/C endpoint: median survival time, dose: 256.0 mg/kg/injection, schedule: Q01DX005 (ip), vehicle: saline", "value": "0 of 6"},
      {"measurement": "survivor count", "setting": "T/C endpoint: median survival time, dose: 300.0 mg/kg/injection, schedule: Q03HX024 (ip), vehicle: DMSO", "value": "10 of 10"},
      {"measurement": "T/C", "setting": "T/C endpoint: median survival time, dose: 360.0 mg/kg/injection, schedule: Q01DX005 (ip), vehicle: DMSO", "value": "143 % of control"},
      {"measurement": "survivor count", "setting": "T/C endpoint: median survival time, dose: 360.0 mg/kg/injection, schedule: Q01DX005 (iv), vehicle: DMSO", "value": "6 of 10"},
      {"measurement": "T/C", "setting": "T/C endpoint: median survival time, dose: 400.0 mg/kg/injection, schedule: Q01DX009 (ip), vehicle: DMSO", "value": "126 % of control"},
      {"measurement": "T/C", "setting": "T/C endpoint: median survival time, dose: 450.0 mg/kg/injection, schedule: Q01DX001 (ip), vehicle: DMSO", "value": "146 % of control"},
      {"measurement": "T/C", "setting": "T/C endpoint: median survival time, dose: 450.0 mg/kg/injection, schedule: Q01DX001 (iv), vehicle: DMSO", "value": "147 % of control [8 of 10 alive]"},
      {"measurement": "survivor count", "setting": "T/C endpoint: median survival time, dose: 450.0 mg/kg/injection, schedule: Q03HX008 (ip), vehicle: DMSO", "value": "1 of 10"},
      {"measurement": "survivor count", "setting": "T/C endpoint: median survival time, dose: 512.0 mg/kg/injection, schedule: Q01DX005 (ip), vehicle: saline", "value": "0 of 6"}
    ]}
  ]
}
